Reference: PubChem BioAssay AID1259254 (NCATS, 2017)
This is a random part of about 59,000 reagents. Over the whole deposit, about 1,550 (2.6%) were called active. 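G2 share is only a proxy for re-replication; each gene was hit by three separate siRNAs, and active genes were retested.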 The raw values are shown without normalisation. A number with no mark means an inactive call. The numbers tell different reagents against one gene apart. Not given: the amount of reagent.

Purpose: 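Gene knock-downs that lead to re-replication, shown by excess G2 DNA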 (primary screen)
Cell system: human HCT116 colorectal cancer cells
Reagent: single siRNA against human genes
Duration: 3 days
Measurement: 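Nuclei stained with Hoechst and imaged; cell-cycle phase assigned by DNA content; G2 share scaled per plate, non-targeting siRNA 0%, GMNN siRNA 100%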
Direction: G2 robust z-score and G2 cells, % of GMNN control: higher = more G2 cells, more excess DNA replication; raw share of cells in G2: higher = larger share of cells with G2 DNA content
Call rule: 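Active siRNAs have a G2 robust z of 5 or more median absolute deviations over the median, which in these data means about 38% or higher of GMNN control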

Gene	siRNA no.	G2 robust z-score	G2 cells, % of GMNN control	raw share of cells in G2 (%)
IFRD2	1	-0.91	-3.43	3.61
IFRD2	2	-0.507	-0.598	3.66
IFRD2	3	1.72	15	8.67
NCDN	1	3.31	26.2	15.3
NCDN	2	-0.27	1.07	4.58
NCDN	3	-0.746	-2.28	2.32
FGF14-AS2	1	-0.735	-2.2	2.84
FGF14-AS2	2	-0.483	-0.431	2.88
FGF14-AS2	3	-0.0508	2.61	4.06
ACMSD	1	-0.824	-2.83	3.41
ACMSD	2	0.099	3.66	6.54
ACMSD	3	2.11	17.8	14
S100A14	1	1.77	15.4	8.23
S100A14	2	-1.16	-5.18	3.57
S100A14	3	1.56	13.9	8.01
PRR15	1	1.74	15.2	9.1
PRR15	2	2.93	23.6	11.2
PRR15	3	-0.808	-2.72	2.33
DENND4B	1	-0.355	0.471	5.54
DENND4B	2	0.0501	3.32	5.33
DENND4B	3	-0.396	0.182	3.47
TPPP3	1	-0.87	-3.15	2.15
TPPP3	2	-0.752	-2.32	2.77
TPPP3	3	0.675	7.72	7.52
CAVIN1	1	-1.05	-4.4	1.58
CAVIN1	2	-0.598	-1.24	2.73
CAVIN1	3	-1.21	-5.54	1.58
KRT28	1	1.42	13	6.86
KRT28	2	-0.782	-2.54	2.69
KRT28	3	3.38	26.7	11.9
SLC49A4	1	2.95	23.8	14.2
SLC49A4	2	-0.221	1.41	3.44
SLC49A4	3	2.39	19.8	9.19
CLEC12A	1	0.488	6.4	4.79
CLEC12A	2	0.462	6.22	5.83
CLEC12A	3	0.732	8.12	5.68
P2RY14	1	0.0181	3.09	6.95
P2RY14	2	0.343	5.38	6.4
P2RY14	3	4.83	37	14.6
AMOT	1	0.159	4.08	5.07
AMOT	2	0.914	9.4	6.11
AMOT	3	-0.121	2.12	3.43
NFKBIZ	1	-0.624	-1.43	3.96
NFKBIZ	2	-0.214	1.46	5.26
NFKBIZ	3	-0.403	0.131	2.73
ABRA	1	-0.257	1.16	4.61
ABRA	2	0.3	5.07	4.71
ABRA	3	-0.228	1.36	3.07
PHLPP1	1	-1.11	-4.85	3.08
PHLPP1	2	-0.438	-0.116	4.09
PHLPP1	3	-0.178	1.71	3.81
KRTAP19-8	1	-0.225	1.38	3.36
KRTAP19-8	2	-0.666	-1.72	2.95
KRTAP19-8	3	0.4	5.78	5.73
CAPN6	1	-1.22	-5.62	3.6
CAPN6	2	-0.895	-3.33	3.73
CAPN6	3	-0.96	-3.79	2.5
AMPD1	1	-0.912	-3.45	2.71
AMPD1	2	1.06	10.4	8.26
AMPD1	3	6.76 (active)	50.6	23.1
TOP3A	1	-0.57	-1.04	3.87
TOP3A	2	0.593	7.14	8.62
TOP3A	3	4.66	35.8	16.3
FGD2	1	4.65	35.7	17.8
FGD2	2	-0.832	-2.89	4.58
FGD2	3	0.556	6.88	7.59
DNM2	1	-1.35	-6.51	2.62
DNM2	2	1.42	13	9.58
DNM2	3	1.85	16	9.59

4 neighbouring reagents from above:
Gene	siRNA no.	G2 robust z-score	G2 cells, % of GMNN control	raw share of cells in G2 (%)
CAPN6	1	-1.22	-5.62	3.6
CAPN6	2	-0.895	-3.33	3.73
CAPN6	3	-0.96	-3.79	2.5
AMPD1	1	-0.912	-3.45	2.71
